The campaign covered roughly 31,000 sequences. About 1,400 (4.5%) were called active.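 The calls were made as follows: active = median seed-adjusted z-score above 1 or below -1; inactive = the rest.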 This is one part of the list.
Assay: Novel Modifiers of Survival Motor Neuron (SMN) Protein: Gene Identification via Genome-wide siRNA Screen;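 also: luminescence tracks full-length SMN protein made from the SMN2 reporter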
Conditions: HEK293T SMN2-luciferase reporter, siRNA knockdown, 72 h; actives lie on both sides
How it was run: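 Each of three siRNAs per gene is reverse-transfected (1 pmol) into reporter HEK293T cells whose luciferase output tracks SMN protein level. After 72 h culture, ONE-Glo luminescence is control-normalized, log10-transformed and MAD-standardized; Common Seed Analysis deprioritizes seed-driven hits.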

Sequence | median seed-adjusted z-score
CCACGACUCUGGAAACUAUTT against IL6R | inactive: -0.441
GUUGUGAUGUGAAAUCGAATT against NCAM2 | inactive: 0.192
CAUUGGAAAUGAUAUCGUATT against SIPA1L1 | inactive: 0.0925
AGAUCCUGCGCUAUGAGAATT against SCN1B | inactive: 0.331
GGAGCGUGUUUACAAUGUATT against MSR1 | inactive: 0.0743
UGAUUACGAGGUUCAUGUATT against RAB6B | inactive: 0
GAGCGGACAUGAUAAGCAUTT against CD302 | inactive: 0.0818
UCGCUUCACUGUGCACAUATT against SNX15 | inactive: -0.152
CCAUAUUACAAGAAUACGATT against RFK | inactive: -0.00532
CAUAUUCUCUGUUCACAAUTT against HRH4 | inactive: 0.247
GAAUUGACUGUAGAUCCAATT against KIF2A | inactive: 0.289
AAUCUUCUUUUAUCCACAATT against VN1R5 | inactive: 0.177
GGAUGUCUCAGAUUUAACATT against TAF11 | inactive: -0.848
GAGAAACCGCUUUCCUUCATT against APOBEC3H | inactive: 0.256
GCAAGCUGGUGUCUCCCAATT against MLXIPL | inactive: 0
GGUUGGAUUCGGAACUGAATT against KRT1 | inactive: -0.362
CCAUCUCACUGACCAUUGUTT against ALOX12B | inactive: 0.0071
GGUGUCUAAUCAAGACGUATT against ITPR2 | inactive: 0
GAUCAUCUCUGAAACAGCATT against GYG1 | inactive: 0.119
GUGCCUAUGUCAUCGUAUATT against REM1 | inactive: 0.231
CUGUCACACUUGCAACUCUTT against ISLR2 | inactive: 0.263
GGUAUUGUCAUGUCCUAUATT against ACADL | inactive: 0.223
CGAUAGAUCAAGCACUAUUTT against ZBTB33 | inactive: 0.164
CGAGAAGGACGGUGAGAAATT against PITPNA | inactive: -0.225
GGAGAUGCAUUACGUUUCATT against FGL2 | inactive: 0
CAAGCACUGUUGACAACAATT against XPO4 | inactive: 0.616
GGACGGUCUUUAUAGAUGUTT against MORC4 | inactive: 0.13

Sequence | median seed-adjusted z-score
GAAUGCGAAGUGGAAGAAATT against WFDC6 | inactive: 0.0443
GACGGAUCCUAAUAGACAATT against IGSF10 | inactive: -0.0992
CAAAAAUGCGUGGAACUUUTT against SNRPB2 | inactive: -0.967
CCAAUGUUGUGGUAAAGCUTT against ERMP1 | inactive: 0.231
CCUCGAUUGUCUUCCGGAATT against UBA7 | active: 2.41
UGAACUGAUUAACAUAAUATT against MCFD2 | inactive: -0.0111
GUCACUUGGUUUUACUCAATT against OTOG | inactive: -0.344
CCGUAGCAAAGGAACAGCATT against ITGB1 | inactive: 0
CCGAAACCGUGGACAUGUUTT against UBE4B | inactive: -0.0364
GACACUACCUUUCCGAGGATT against MEPCE | inactive: -0.35
CGCUCUACAUGGUCCGGUUTT against CA7 | inactive: -0.0754
GCGAGCAUAUAUUCCUAGATT against RIOK1 | inactive: 0.0528
GAAUCAUGGGUAAAUCGAATT against SERINC3 | inactive: 0.29
GGCAAAGGUUUAUUCCAGATT against KLK10 | inactive: -0.902
GGCAGACUUUCUACAUGCATT against NSF | inactive: -0.0728
GAUCUGAUUCUAUUGCGUATT against ADD1 | inactive: -0.0129
GCGAAGUGUUUGUAAAUCATT against PTPN4 | inactive: -0.447
CGACAAUAAAGACCAAGUUTT against CYTH1 | inactive: 0.348
GCUUUAUGAUGGAGUUGAATT against FANCL | inactive: -0.0823
CAGAUACACUUGGAAGUAUTT against SLC30A7 | inactive: 0.0492
GGCUUCUUCUCAUAUCGGUTT against ATL3 | inactive: 0.201
CCGGCAAGAUUAUCGAGUATT against HCFC1 | active: 1.47
GCCUUUACGUGAUACUAGUTT against EXTL3 | inactive: -0.353
GGAAUUGUCCAGUCAAGUATT against GABRA1 | inactive: -0.405
CAAUCGUCCAAUGAUCUUATT against PCDHB1 | inactive: 0.342
GGCAAUUCCAUGUAAGGAATT against MPP7 | inactive: 0.163
GCGGAGCAUUUGCAACAAATT against NR6A1 | inactive: -0.287

Pulled one by one from above, 2 records:
Sequence | median seed-adjusted z-score
CGAUAGAUCAAGCACUAUUTT against ZBTB33 | inactive: 0.164
GAGCGGACAUGAUAAGCAUTT against CD302 | inactive: 0.0818

Reference: PubChem BioAssay AID1347426 (Functional Genomics Laboratory (NCATS/FGL), 2020)
